Assay results published in paper PMC7699203.
Results are given in words; binding and its absence hold for the method and conditions named. In cells and extracts the contact can be indirect. Some entries that bind do so weakly or less than the wild type. For some of these results: Where a sequence is shown, tags or fusion partners need not be part of it. Values belong to the molecule of their own block, whether it stands above or below them.

By UniProt entry, the sequences of proteins in these tests, tags left out.
UniProt Q9UM11: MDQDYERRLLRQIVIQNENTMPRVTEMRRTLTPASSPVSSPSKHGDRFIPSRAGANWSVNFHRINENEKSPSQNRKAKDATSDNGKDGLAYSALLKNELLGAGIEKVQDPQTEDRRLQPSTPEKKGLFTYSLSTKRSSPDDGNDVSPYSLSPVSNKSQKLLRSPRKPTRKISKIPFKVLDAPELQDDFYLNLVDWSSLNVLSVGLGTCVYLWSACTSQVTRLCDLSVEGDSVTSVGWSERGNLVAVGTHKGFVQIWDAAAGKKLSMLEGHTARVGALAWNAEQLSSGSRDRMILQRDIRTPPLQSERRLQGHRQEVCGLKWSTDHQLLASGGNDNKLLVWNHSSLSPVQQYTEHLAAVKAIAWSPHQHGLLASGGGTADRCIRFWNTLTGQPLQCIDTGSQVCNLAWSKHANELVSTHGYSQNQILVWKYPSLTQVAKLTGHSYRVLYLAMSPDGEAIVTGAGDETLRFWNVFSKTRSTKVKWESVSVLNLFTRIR

Columns and labels:
[1] = target: T1, endogenous fumarylacetoacetate hydrolase (FAH) (human (endogenous in HHSteCs)) (UniProt P16930); experiment: co-IP; endogenous proteins in HHSteCs treated with MG132 for 8 h before harvesting; about 5 mg lysate with anti-FAH or anti-Cdh1 antibody; blotted with FAH or Cdh1 antibodies
T1 sequence: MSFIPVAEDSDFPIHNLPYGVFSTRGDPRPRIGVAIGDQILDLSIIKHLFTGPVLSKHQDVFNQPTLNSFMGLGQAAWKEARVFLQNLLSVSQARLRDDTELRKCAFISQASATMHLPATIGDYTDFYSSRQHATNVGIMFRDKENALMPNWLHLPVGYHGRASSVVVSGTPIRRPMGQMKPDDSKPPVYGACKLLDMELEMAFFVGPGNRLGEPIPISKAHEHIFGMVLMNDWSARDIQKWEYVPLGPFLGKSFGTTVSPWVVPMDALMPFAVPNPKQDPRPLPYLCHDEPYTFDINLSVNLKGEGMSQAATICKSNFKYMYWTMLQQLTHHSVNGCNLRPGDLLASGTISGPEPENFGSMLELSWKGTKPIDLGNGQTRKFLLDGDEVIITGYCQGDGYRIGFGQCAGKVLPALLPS

[2] = target: T2, Myc-tagged fumarylacetoacetate hydrolase (FAH) (UniProt P16930); experiment: co-IP; HEK293 cells co-transfected with Myc-FAH and Flag-Cdh1, harvested after 48 h; lysis in 50 mM Tris-HCl pH 7.6, 150 mM NaCl, 1 mM EDTA, 1% Triton X-100, 1 mM PMSF; 2-3 mg lysate with anti-Myc or anti-Flag antibody at 4 °C overnight, then protein agarose beads; blotted with the other tag's antibody
T2 sequence: T1 sequence

[3] = target: Flag-tagged Cdh1 (UniProt Q9UM11); experiment: as above
[4] = target: endogenous Cdh1 (human (endogenous in HHSteCs)) (UniProt Q9UM11); experiment: co-IP; endogenous proteins in HHSteCs treated with MG132 for 8 h before harvesting; about 5 mg lysate with anti-FAH or anti-Cdh1 antibody; blotted with FAH or Cdh1 antibodies

binding [1]: binds
Molecule: endogenous Cdh1 (from UniProt Q9UM11 1-496)

binding [2]: binds
Molecule: Flag-tagged Cdh1 (from UniProt Q9UM11 1-496)

binding [3]: binds
B1: Myc-tagged fumarylacetoacetate hydrolase (FAH) (enzyme, UniProt P16930 1-419)
chain: T1 sequence

binding [4]: binds
B2: endogenous fumarylacetoacetate hydrolase (FAH) (enzyme, UniProt P16930 1-419)
chain: T1 sequence
